Assay results taken from article PMC7819943, “Rice protein-binding microarrays: a tool to detect cis-acting elements near promoter regions in rice”.
The list shows a part of the results.

Chains of the proteins cited; added tags and fusions are not shown.
UniProt Q0JBA9, entry or part of it: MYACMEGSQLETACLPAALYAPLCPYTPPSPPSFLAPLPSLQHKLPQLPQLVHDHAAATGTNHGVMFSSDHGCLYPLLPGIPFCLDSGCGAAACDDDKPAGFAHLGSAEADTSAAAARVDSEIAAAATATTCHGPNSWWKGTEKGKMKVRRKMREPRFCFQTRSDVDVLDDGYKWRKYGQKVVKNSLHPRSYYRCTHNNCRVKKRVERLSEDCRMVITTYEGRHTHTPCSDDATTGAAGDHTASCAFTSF

molecular target: OsWRKY34 (Oryza sativa, UniProt Q0JBA9 1-250); assay: protein-binding microarray (RPBM); PBS, 2% BSA, 51.3 ng/ul salmon testes DNA, 50 uM zinc acetate, 200 nM TF, 25 C, 1 h; high values mean tight binding; conditions: protein: recombinant; tags: N-terminal polyhistidine and DsRed monomer fusion (pET32a); label: CyDye5-dUTP incorporated in the synthesized complementary strand; 3' TTTTT single-stranded linker to array surface; dsDNA, one strand shown
Outline: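 Transcription factors were made in E. coli BL21-CodonPlus as N-terminal fusions to a polyhistidine tag and DsRed, then purified on Ni–NTA. After primer extension with Cy5-dUTP and blocking with 2% BSA, a custom Agilent array was exposed for 1 h at 25 °C to 200 nM protein in PBS, 2% BSA, salmon testes DNA and 50 µM zinc acetate. Washed arrays were scanned on an Axon 4000B, and the binding signal is per-feature fluorescence intensity in arbitrary units.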

Row | Sequence | binding signal
1 | CAGTTTTTACTTCAGTACGTCATTATCTAAGTTTCTTTACCGGAGTCACCTAGTGCAG | 8240 fluorescence intensity (a.u.)
2 | CAGCCTTCCTGTCCACCTGCTGCTGCACGCCGCCGCCGAGCGGAGTCACCTAGTGCAG | 8130 fluorescence intensity (a.u.)
3 | CTCATCGCCTGTCCTATATTGCCACCGCCGTTGTCATGTGCGGAGTCACCTAGTGCAG | 8590 fluorescence intensity (a.u.)
4 | ATAATTTTTTTCCTTTCCATATGCTCGCTCCAAACCACTCCGGAGTCACCTAGTGCAG | 11500 fluorescence intensity (a.u.)
5 | AGCAAGCTACCACCGCAGCCCAGCTCGAGGCCACCACCACCGGAGTCACCTAGTGCAG | 8130 fluorescence intensity (a.u.)
6 | GTAGGGGTCTTATTTTCGCAGGCGGACATGACACTTAGAGCGGAGTCACCTAGTGCAG | 8620 fluorescence intensity (a.u.)
7 | TGCGTACATGTGAGAGGATTCGGTTGACCTCCATTTCACGCGGAGTCACCTAGTGCAG | 8570 fluorescence intensity (a.u.)
8 | ACCTGGTTCATTGCTTTACCGATGCTTCCTTATAAAATTACGGAGTCACCTAGTGCAG | 9110 fluorescence intensity (a.u.)
9 | GGTGACAATCTTTTTTTTCTTCTTCTAAATGTTACAGTACCGGAGTCACCTAGTGCAG | 8350 fluorescence intensity (a.u.)
10 | TAATGTATTCCGGCAAATGAATATGTTGTTTGACTTTTTTCGGAGTCACCTAGTGCAG | 10300 fluorescence intensity (a.u.)
11 | TCTTCTCACTCTAATCAAATCTCTCTCTCTCTCTCTCTCTCGGAGTCACCTAGTGCAG | 8280 fluorescence intensity (a.u.)
12 | AACTTAAAGCAGTTTGACTTTGACTAAAGTCAAAACGTCTCGGAGTCACCTAGTGCAG | 8510 fluorescence intensity (a.u.)
13 | CCACGCCGCCCCGCCCGCCGCCGCGACCACCCGTTCCACCCGGAGTCACCTAGTGCAG | 8630 fluorescence intensity (a.u.)
14 | GCCAGTGTCTTTCTCTACAAGAAATTCCTCGGTTTCCACGCGGAGTCACCTAGTGCAG | 9520 fluorescence intensity (a.u.)
15 | ACCATCCATCCAGCCAGCCAGCCAGCCACATCATATGTCCCGGAGTCACCTAGTGCAG | 9280 fluorescence intensity (a.u.)
16 | TATCCGTATCCAACGTTTGACCGTTCATCTTATCTGAAAACGGAGTCACCTAGTGCAG | 8840 fluorescence intensity (a.u.)
17 | CTCTCCTCTCGTCCCGCGCCTCGGCCGCCGTCTGATTCCGCGGAGTCACCTAGTGCAG | 9840 fluorescence intensity (a.u.)
18 | TATCGGAGTAGGCCTACTGGGCCAATTGGGTGGGCTTTTTCGGAGTCACCTAGTGCAG | 10300 fluorescence intensity (a.u.)
19 | ACCATCTCTAGAACTTTCCATCTCGCCTCCGCCTCCGCCTCGGAGTCACCTAGTGCAG | 9460 fluorescence intensity (a.u.)
20 | GACATCCACCCCAGCGATGCTGCTCTACGCCGCCCTGTTCCGGAGTCACCTAGTGCAG | 12400 fluorescence intensity (a.u.)
21 | CTAGCTGTTCCCAAGTCCTCCGTCTCGTTTTCCGCGCAACCGGAGTCACCTAGTGCAG | 12100 fluorescence intensity (a.u.)

2 entries drawn at random from the list so far:
Row | Sequence | binding signal
4 | ATAATTTTTTTCCTTTCCATATGCTCGCTCCAAACCACTCCGGAGTCACCTAGTGCAG | 11500 fluorescence intensity (a.u.)
15 | ACCATCCATCCAGCCAGCCAGCCAGCCACATCATATGTCCCGGAGTCACCTAGTGCAG | 9280 fluorescence intensity (a.u.)

More records follow:

Row | Sequence | binding signal
22 | AACCAATTCGCTTCAACTTTAGTCACTTGATTTGCTTTATCGGAGTCACCTAGTGCAG | 9570 fluorescence intensity (a.u.)
23 | TTCTTCACCGTTTTGTTTTCTCTGCGCCTCAAATTTCCTTCGGAGTCACCTAGTGCAG | 12000 fluorescence intensity (a.u.)
24 | TCGGTATATCTTATGTGGTTGCCTATCCCTGCTGGTTTTACGGAGTCACCTAGTGCAG | 10000 fluorescence intensity (a.u.)
25 | TTGGAGGAAGATGTTGGTTGCTATGGGCTTCATTGTCGCGCGGAGTCACCTAGTGCAG | 9160 fluorescence intensity (a.u.)
26 | CATGTTGTTTTGTTCTGGGCATCTCAGTATAATTGTATTCCGGAGTCACCTAGTGCAG | 10100 fluorescence intensity (a.u.)
27 | GCTTCCCTGGTTTCGTTGCTCATGTCTTCGCTGTCTCGGGCGGAGTCACCTAGTGCAG | 12500 fluorescence intensity (a.u.)
28 | TCTCTCTCTCTCTCTCTCTCTCTCTCTCTCTCTAGCTTCACGGAGTCACCTAGTGCAG | 9560 fluorescence intensity (a.u.)
29 | TGATTGATTACACTCGCAAGCATGCAGCTGCAGTTCTACTCGGAGTCACCTAGTGCAG | 9890 fluorescence intensity (a.u.)
30 | CCCTTTGTTTTTACGTTGAGTCTTGCACATGATCTGTTCACGGAGTCACCTAGTGCAG | 12000 fluorescence intensity (a.u.)
31 | TTTTGTTCAGGTACACGGGAAATATCTCATCCTTTTTGTTCGGAGTCACCTAGTGCAG | 9930 fluorescence intensity (a.u.)
32 | CAGCCCACCGCCGCATCCTCGCAACCACTGTCTCGCTCTCCGGAGTCACCTAGTGCAG | 17000 fluorescence intensity (a.u.)
33 | GATTCCCCATTCGCCCTCGCCACCGCCACCGCCACCGCCACGGAGTCACCTAGTGCAG | 12400 fluorescence intensity (a.u.)
34 | TTTGGGTGGTGGCAGTTGACAGAAGAGAGTGAGCACACAGCGGAGTCACCTAGTGCAG | 8270 fluorescence intensity (a.u.)
35 | TTCGGAGGCGGAGGCGGTGGTGGGCTTGGTGGAGGTGGCGCGGAGTCACCTAGTGCAG | 9860 fluorescence intensity (a.u.)
36 | GCCACTTAGATTAGGGACCCACTTCTATTTTTAACCCTTTCGGAGTCACCTAGTGCAG | 10800 fluorescence intensity (a.u.)
37 | TTCATTCCATAATTCATGTTCAAGCTGCTTGCTCCATGTCCGGAGTCACCTAGTGCAG | 10400 fluorescence intensity (a.u.)
38 | AATCAATGGATTATATTATTCTCCTACATGGATTTGTTCTCGGAGTCACCTAGTGCAG | 8550 fluorescence intensity (a.u.)
39 | TACTATTTTTTTCTATAACTATTTATGTCACATGTAAATACGGAGTCACCTAGTGCAG | 8300 fluorescence intensity (a.u.)
40 | CTGGTTTTATAAATTGGGGTACGTGTTGTATCGGGACGATCGGAGTCACCTAGTGCAG | 10800 fluorescence intensity (a.u.)
41 | TCGTTACATGTTCTTTCATTCTCGTATTGCATTATCTGCTCGGAGTCACCTAGTGCAG | 9260 fluorescence intensity (a.u.)
42 | AATTGGATTATTCTAAAGCGTTAGTGGCGCCTGTTTTCTTCGGAGTCACCTAGTGCAG | 10200 fluorescence intensity (a.u.)
